Experimental data taken from doi:10.1101/2024.09.10.612038.
Results are given in words; binding and its absence hold for the method and conditions named. In cells and extracts the contact can be indirect. Here binding means that the protein was enriched with, or labelled near, the bait; the list need not be complete.

Biological target: CNOT1^mTID (human), A5YKK6
Test: proximity labelling
Details: remark: other sources report otherwise

binding: binds
B1: CNOT4, O95628 1-575 (protein)
chain: MSRSPDAKEDPVECPLCMEPLEIDDINFFPCTCGYQICRFCWHRIRTDENGLCPACRKPYPEDPAVYKPLSQEELQRIKNEKKQKQNERKQKISENRKHLASVRVVQKNLVFVVGLSQRLADPEVLKRPEYFGKFGKIHKVVINNSTSYAGSQGPSASAYVTYIRSEDALRAIQCVNNVVVDGRTLKASLGTTKYCSYFLKNMQCPKPDCMYLHELGDEAASFTKEEMQAGKHQEYEQKLLQELYKLNPNFLQLSTGSVDKNKNKVTPLQRYDTPIDKPSDSLSIGNGDNSQQISNSDTPSPPPGLSKSNPVIPISSSNHSARSPFEGAVTESQSLFSDNFRHPNPIPSGLPPFPSSPQTSSDWPTAPEPQSLFTSETIPVSSSTDWQAAFGFGSSKQPEDDLGFDPFDVTRKALADLIEKELSVQDQPSLSPTSLQNSSSHTTTAKGPGSGFLHPAAATNANSLNSTFSVLPQRFPQFQQHRAVYNSFSFPGQAARYPWMAFPRNSIMHLNHTANPTSNSNFLDLNLPPQHNTGLGGIPVAGEEEVKVSTMPLSTSSHSLQQGQQPTSLHTTVA
